Screening data, single-dose tests

Protein sequences, listed by entry. Tags and fused reporters are not part of them. Residues count along the entry.
UniProt P9WFT3, whole entry: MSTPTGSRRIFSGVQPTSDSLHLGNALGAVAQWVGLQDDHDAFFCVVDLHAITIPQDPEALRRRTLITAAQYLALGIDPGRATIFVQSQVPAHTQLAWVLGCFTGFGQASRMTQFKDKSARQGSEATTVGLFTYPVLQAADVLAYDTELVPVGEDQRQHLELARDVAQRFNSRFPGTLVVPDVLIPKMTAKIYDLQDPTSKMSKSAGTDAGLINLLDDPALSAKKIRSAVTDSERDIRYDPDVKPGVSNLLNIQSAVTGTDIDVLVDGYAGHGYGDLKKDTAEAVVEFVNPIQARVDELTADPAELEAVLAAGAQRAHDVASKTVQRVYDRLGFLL
UniProt P9WNZ1, whole entry: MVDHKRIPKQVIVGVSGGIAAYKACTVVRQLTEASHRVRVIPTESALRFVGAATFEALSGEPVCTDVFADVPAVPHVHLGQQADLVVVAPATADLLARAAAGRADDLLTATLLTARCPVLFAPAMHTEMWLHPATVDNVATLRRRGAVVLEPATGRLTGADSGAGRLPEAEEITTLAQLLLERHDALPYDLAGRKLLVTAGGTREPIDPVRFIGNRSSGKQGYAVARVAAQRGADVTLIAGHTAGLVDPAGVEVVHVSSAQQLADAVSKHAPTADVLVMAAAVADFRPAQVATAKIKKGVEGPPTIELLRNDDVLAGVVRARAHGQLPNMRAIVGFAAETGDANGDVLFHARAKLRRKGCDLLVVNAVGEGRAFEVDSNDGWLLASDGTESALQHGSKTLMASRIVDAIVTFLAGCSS
UniProt A4I591, 1-473: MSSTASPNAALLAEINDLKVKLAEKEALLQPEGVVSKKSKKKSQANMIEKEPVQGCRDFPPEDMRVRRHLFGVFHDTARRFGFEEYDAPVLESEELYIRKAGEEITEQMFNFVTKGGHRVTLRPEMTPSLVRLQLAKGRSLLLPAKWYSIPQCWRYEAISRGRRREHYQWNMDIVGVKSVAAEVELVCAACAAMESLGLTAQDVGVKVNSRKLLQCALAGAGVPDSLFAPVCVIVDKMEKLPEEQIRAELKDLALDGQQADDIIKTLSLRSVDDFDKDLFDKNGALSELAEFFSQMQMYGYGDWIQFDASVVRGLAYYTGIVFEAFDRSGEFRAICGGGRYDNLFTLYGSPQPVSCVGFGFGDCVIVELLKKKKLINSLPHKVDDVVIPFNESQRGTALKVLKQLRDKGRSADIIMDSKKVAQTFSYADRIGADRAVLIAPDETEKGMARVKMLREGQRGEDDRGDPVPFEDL
UniProt I6X8D2, whole entry: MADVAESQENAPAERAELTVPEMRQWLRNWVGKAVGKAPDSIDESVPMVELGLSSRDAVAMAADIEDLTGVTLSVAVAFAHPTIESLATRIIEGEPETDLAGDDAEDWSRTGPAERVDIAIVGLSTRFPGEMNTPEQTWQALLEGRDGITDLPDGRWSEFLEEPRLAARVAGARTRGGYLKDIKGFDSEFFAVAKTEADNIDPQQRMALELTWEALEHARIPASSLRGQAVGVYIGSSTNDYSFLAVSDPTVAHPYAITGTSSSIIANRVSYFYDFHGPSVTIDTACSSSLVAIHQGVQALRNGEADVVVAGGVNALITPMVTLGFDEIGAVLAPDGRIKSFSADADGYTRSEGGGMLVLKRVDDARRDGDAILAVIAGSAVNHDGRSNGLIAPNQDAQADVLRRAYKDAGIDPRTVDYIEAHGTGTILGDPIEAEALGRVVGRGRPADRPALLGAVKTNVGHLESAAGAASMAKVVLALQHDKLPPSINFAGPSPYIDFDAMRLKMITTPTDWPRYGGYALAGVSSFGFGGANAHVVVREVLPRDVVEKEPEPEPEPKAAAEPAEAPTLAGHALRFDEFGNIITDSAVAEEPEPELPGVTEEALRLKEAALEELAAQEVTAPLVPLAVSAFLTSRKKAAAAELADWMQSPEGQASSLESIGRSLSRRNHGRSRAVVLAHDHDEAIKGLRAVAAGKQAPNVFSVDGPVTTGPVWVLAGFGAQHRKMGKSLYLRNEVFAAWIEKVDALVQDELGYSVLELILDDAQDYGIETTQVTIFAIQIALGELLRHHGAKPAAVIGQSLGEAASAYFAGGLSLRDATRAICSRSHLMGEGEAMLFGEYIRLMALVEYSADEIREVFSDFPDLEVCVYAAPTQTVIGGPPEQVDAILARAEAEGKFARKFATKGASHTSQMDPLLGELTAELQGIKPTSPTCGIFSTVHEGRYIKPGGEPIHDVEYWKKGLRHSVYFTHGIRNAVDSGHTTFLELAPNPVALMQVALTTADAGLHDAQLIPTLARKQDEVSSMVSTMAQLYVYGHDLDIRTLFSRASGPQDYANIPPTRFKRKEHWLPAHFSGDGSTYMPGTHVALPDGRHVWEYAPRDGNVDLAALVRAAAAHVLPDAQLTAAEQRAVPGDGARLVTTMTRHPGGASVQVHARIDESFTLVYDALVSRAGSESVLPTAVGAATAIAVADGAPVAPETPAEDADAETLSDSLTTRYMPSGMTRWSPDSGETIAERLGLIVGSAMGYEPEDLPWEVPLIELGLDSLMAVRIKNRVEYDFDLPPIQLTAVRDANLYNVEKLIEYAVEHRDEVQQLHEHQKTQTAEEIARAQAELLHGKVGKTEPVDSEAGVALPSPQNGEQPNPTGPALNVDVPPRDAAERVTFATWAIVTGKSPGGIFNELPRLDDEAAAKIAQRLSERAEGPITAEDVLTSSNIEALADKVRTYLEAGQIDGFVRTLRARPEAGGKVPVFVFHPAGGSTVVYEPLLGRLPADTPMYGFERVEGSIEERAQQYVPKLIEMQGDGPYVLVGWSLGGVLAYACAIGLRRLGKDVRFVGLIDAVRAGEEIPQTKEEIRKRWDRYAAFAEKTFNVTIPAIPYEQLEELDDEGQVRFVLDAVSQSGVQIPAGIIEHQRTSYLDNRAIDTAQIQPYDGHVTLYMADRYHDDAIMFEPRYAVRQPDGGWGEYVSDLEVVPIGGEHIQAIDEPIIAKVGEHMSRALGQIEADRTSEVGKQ

Source: ChEMBL document CHEMBL3988442, “University of Dundee, Small-Polar-MMV Screening Library” (2021).

Values are the deposited “Percent Effect”, in %.
How 0% and 100% were set is not recorded. Most values in the screen are low, and negative values occur.
The compounds are a random part of those screened.

A: 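Enzyme assay of tryptophanyl-tRNA synthetase; the read-out is not stated. Target: Tryptophan-tRNA ligase, Mycobacterium tuberculosis (UniProt P9WFT3). Concentration: 10 µM. Direction is not recorded; retested compounds ran higher, which suggests that high means inhibition. Of about 65,000 compounds tested this way, about 64 (0.098%) reached 50% or more in at least one test.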
B: 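Coenzyme A biosynthesis protein CoaBC, Mycobacterium tuberculosis (UniProt P9WNZ1). Enzyme assay of CoaBC with a phosphate dye (Biomol Green) read at 650 nm. Tested at 30 µM. Higher reads as stronger inhibition, judged from the few compounds that gave an IC50. Most strong results did not repeat in a second test. About 67,000 compounds were tested under these conditions; 0.06% (about 40) showed 50% or more at least once.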
C: 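Enzyme assay of histidyl-tRNA synthetase; the read-out is not stated. Target: Histidine-tRNA ligase, Leishmania infantum (UniProt A4I591). Concentration: 30 µM. Higher reads as stronger inhibition (inferred: compounds with an IC50 in retests scored well above the rest). The assay is labelled LdHisRS but filed under L. infantum. About 69,000 compounds were tested under these conditions; 0.6% (about 410) showed 50% or more at least once.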
D: 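Enzyme assay of the thioesterase domain of polyketide synthase 13; the read-out is not stated. Target: Polyketide synthase Pks13, Mycobacterium tuberculosis (UniProt I6X8D2). Compounds at 30 µM. The record gives no direction; the compounds picked for IC50 retests had high values, so higher reads as stronger inhibition. About 67,000 compounds were tested under these conditions; 0.46% (about 300) showed 50% or more at least once.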

Result for CC(C)=CCN1C[C@H]2CC[C@@H]1CN(C(=O)c1c[nH]c(=O)c(Cl)c1)C2 was A: -0.2467%; B: 3.226%; C: 17.14%; D: -3.366%. Result for O=C(CN1CC(c2nc(C3CC3)no2)C1)N1CCOCC1 was A: -1.36%; B: 3.576%; C: 25.97%; D: -27.29%. CCN1CCN(C[C@@H]2CN(c3ncc(Cl)cc3F)C[C@@H]2CO)CC1 gave A: 2.312%; B: -0.2484%; C: 12.7%; D: -19.55%. Result for CC(=O)c1ccc(Cl)c(Cl)c1OCC(=O)NC(C)C was A: 2.801%; B: -2.161%; C: 16.67%; D: 8.396%. Result for CC(NCc1cnc(N2CCOCC2)s1)c1ccc(Cl)s1 (stereo not shown) was A: 1.088%; B: 5.409%; C: 21.24%; D: -11.98%. Result for CN1CCN(C(=O)c2cc(NC(=O)c3ccccc3)n(C)n2)CC1 was A: -2.736%; B: 4.126%; C: 7.143%; D: -2.411%.

For Cc1nc(C(=O)N2C[C@@H]3COC[C@]3(COCc3cccnc3)C2)cs1 the result was A: -2.789%; B: 5.263%; C: 13.27%; D: -15.74%. Result for Cc1cc(-c2nn(C)c(Cl)c2CN2CCOCC(O)C2)no1 (stereo not shown) was A: -1.921%; B: 7.895%; C: 15.24%; D: -15.68%. Cc1csc(N2CCN(CC(=O)Nc3ccncc3)CC2C)n1 (stereo not shown) read A: -2.322%; B: -2.366%; C: 23.85%; D: 10.95%. Result for Cc1csc([C@@H]2C[C@H]3CN(c4ncc(F)cn4)C[C@H]3O2)n1 was B: -1.951%; C: 3.774%; D: 13.35%. Result for CCN(CC1CCOC1)C(=O)c1ccc(-c2ccsc2)nc1C (stereo not shown) was A: 0.2546%; B: 1.276%; C: -23.46%; D: 3.688%. CN(C)C(=O)COC1COC2(CCN(c3cnccn3)CC2)C1 (stereo not shown) read A: -1.339%; B: 10.36%; C: 17.54%; D: -28.25%.

NC(=O)c1cc(C2CCCN(C(=O)CCc3ccsc3)C2)n[nH]1 (stereo not shown) gave A: -0.07993%; B: 1.928%; C: 5.479%; D: -10.68%. For COCCCN(C)c1cc(C(F)(F)F)nc(-c2cccnc2)n1 the result was A: 1.086%; B: 2.479%; C: 15.18%; D: 4.286%. Result for O=S(=O)(c1ccccc1)N1CCC2(CCCN2Cc2cccc(Cl)c2)C1 (stereo not shown) was A: 0.0969%; C: 6.838%; D: -1.87%. Result for Cc1nn(C)c2ncc(S(=O)(=O)N3CCCN4CCCC4C3)cc12 (stereo not shown) was A: -1.644%; B: -0.4132%; C: 5.333%; D: 1.682%. CC(C)(C)c1nc(CN2CCCC2Cn2cccn2)no1 (stereo not shown) gave A: 4.396%; B: 2.169%; C: 10.96%; D: -13.56%. For O=C1N(c2ccc(Br)cc2)Cc2nc(=O)[nH]n21 the result was A: 1.809%; B: 9.287%; C: 19.42%; D: -25.65%.

For Cc1nc(C2CCCN2CCc2cccs2)no1 (stereo not shown) the result was A: 3.191%; B: 3.672%; C: 20%; D: -16.98%. Result for Cc1ccc(-c2ncc(CN3CCN(S(N)(=O)=O)CC3)s2)o1 was A: -2.457%; B: 2.811%; C: 10.45%; D: -24%. For CCCS(=O)(=O)N1CCN(c2cc(-n3nc(C)cc3C)nc(C)n2)CC1 the result was A: 1.077%; B: -12.73%; C: -4.717%; D: -12.59%. With CC(OCC1CC1)C(=O)NCc1ccc(Cn2ccnc2)cc1 (stereo not shown) the screen gave A: -3.802%; B: -1.653%; C: -4%; D: -24.45%. For Cc1ccc(NC(=O)CC2NC(N3CCc4ccccc43)=NC2=O)cc1 (stereo not shown) the result was A: -1.144%; B: 0.4603%; C: 6.25%; D: -20.45%. With CN(Cc1ccc(Cl)c(Cl)c1)C(=O)CNC(N)=O the screen gave A: -6.038%; B: 12.01%; C: 28.57%; D: -33.91%.

The first 2 entries again:

CC(C)=CCN1C[C@H]2CC[C@@H]1CN(C(=O)c1c[nH]c(=O)c(Cl)c1)C2 read A: -0.2467%; B: 3.226%; C: 17.14%; D: -3.366%.
O=C(CN1CC(c2nc(C3CC3)no2)C1)N1CCOCC1 read A: -1.36%; B: 3.576%; C: 25.97%; D: -27.29%.